The values below come from the supplement of paper PMC11006884.

The chains behind the UniProt entries cited, without tags or fusion partners. Where a name states a change or a piece, a line headed by the entry shows the natural chain unless it says otherwise.
UniProt Q8IX18: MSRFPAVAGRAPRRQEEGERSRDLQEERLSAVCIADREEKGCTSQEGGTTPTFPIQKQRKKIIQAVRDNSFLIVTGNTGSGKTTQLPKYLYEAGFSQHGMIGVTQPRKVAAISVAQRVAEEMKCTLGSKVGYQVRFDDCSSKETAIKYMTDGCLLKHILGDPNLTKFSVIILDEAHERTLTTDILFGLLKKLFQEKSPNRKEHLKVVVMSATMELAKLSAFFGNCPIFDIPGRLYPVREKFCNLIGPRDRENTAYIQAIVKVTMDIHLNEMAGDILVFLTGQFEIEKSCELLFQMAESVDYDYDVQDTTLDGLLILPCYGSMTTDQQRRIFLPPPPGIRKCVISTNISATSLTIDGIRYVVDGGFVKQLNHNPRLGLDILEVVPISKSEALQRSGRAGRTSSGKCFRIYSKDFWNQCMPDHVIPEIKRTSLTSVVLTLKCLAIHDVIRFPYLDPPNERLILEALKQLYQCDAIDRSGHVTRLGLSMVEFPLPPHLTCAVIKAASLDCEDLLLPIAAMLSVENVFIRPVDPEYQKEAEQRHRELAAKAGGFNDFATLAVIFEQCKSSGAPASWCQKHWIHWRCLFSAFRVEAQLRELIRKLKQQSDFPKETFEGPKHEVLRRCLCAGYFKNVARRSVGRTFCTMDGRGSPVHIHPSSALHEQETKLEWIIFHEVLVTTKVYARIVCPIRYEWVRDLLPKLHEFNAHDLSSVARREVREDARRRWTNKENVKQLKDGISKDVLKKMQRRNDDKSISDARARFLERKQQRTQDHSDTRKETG
UniProt Q8IY26: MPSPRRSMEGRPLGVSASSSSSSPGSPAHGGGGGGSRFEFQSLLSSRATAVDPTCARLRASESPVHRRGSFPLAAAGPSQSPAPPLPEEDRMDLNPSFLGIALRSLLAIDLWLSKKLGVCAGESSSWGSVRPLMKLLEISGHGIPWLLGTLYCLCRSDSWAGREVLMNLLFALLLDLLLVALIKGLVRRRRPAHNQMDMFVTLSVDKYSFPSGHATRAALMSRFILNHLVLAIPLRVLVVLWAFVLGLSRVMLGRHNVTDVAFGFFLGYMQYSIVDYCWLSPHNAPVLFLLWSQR
UniProt Q7L2H7, whole entry: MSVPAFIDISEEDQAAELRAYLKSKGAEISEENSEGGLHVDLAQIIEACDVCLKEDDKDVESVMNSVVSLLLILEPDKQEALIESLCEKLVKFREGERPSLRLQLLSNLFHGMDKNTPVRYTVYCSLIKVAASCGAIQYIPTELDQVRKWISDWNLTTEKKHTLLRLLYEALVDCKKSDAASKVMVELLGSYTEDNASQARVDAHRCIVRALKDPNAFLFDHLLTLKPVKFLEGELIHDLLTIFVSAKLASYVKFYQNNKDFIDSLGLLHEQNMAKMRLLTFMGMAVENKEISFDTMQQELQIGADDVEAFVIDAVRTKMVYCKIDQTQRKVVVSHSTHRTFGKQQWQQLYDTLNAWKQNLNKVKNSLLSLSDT
UniProt Q7RTV0, whole entry, looked up: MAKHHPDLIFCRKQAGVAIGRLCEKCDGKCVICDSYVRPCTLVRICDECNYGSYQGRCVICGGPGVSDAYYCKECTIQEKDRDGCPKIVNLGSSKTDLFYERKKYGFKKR
UniProt Q86XP3: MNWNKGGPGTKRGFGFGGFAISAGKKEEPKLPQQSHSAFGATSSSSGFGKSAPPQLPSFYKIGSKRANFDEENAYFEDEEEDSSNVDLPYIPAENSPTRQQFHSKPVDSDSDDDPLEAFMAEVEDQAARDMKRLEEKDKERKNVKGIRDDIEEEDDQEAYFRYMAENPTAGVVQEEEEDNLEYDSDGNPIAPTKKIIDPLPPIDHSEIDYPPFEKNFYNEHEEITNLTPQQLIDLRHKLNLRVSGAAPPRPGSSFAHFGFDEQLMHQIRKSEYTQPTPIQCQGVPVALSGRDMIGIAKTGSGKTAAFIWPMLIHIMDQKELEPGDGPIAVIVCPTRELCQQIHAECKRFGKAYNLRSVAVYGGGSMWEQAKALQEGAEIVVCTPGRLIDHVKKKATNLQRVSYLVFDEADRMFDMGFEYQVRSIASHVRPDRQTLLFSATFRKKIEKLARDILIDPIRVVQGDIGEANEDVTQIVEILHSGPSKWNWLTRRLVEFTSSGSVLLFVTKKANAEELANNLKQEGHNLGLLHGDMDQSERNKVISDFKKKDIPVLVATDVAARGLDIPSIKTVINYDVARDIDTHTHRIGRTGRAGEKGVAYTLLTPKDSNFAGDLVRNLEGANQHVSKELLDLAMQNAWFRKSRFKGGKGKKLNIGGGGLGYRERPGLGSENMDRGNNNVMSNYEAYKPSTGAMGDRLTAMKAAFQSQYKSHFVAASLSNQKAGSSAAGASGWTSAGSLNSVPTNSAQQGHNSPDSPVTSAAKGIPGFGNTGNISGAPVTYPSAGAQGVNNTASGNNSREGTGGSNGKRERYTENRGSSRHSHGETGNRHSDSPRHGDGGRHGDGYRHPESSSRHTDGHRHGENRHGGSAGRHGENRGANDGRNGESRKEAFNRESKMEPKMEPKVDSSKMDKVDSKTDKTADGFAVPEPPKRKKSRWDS
UniProt Q7Z2W4: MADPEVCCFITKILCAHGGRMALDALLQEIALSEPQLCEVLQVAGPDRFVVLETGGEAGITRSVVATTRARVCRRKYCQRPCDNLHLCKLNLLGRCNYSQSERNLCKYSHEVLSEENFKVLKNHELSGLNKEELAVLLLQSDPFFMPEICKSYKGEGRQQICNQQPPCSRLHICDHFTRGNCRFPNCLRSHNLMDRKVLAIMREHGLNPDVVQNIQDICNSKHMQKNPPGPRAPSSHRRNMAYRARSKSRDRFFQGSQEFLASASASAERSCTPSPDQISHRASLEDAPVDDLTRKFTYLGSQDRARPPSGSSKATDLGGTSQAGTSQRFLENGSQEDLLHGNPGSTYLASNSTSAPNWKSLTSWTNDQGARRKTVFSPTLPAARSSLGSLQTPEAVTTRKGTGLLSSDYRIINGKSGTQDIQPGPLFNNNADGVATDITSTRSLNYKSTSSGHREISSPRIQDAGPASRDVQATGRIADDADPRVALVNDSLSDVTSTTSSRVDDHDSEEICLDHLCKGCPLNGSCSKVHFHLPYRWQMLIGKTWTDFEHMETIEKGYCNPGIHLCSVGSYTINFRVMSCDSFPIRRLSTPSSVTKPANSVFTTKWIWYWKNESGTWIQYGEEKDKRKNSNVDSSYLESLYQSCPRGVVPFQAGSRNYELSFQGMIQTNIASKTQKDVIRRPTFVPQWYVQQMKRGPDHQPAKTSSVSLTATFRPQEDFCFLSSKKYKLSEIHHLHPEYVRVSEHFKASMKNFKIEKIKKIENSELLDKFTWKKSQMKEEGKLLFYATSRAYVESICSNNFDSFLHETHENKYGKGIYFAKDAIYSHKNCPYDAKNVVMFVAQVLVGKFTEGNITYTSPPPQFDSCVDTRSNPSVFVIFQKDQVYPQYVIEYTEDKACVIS
UniProt Q86YR5: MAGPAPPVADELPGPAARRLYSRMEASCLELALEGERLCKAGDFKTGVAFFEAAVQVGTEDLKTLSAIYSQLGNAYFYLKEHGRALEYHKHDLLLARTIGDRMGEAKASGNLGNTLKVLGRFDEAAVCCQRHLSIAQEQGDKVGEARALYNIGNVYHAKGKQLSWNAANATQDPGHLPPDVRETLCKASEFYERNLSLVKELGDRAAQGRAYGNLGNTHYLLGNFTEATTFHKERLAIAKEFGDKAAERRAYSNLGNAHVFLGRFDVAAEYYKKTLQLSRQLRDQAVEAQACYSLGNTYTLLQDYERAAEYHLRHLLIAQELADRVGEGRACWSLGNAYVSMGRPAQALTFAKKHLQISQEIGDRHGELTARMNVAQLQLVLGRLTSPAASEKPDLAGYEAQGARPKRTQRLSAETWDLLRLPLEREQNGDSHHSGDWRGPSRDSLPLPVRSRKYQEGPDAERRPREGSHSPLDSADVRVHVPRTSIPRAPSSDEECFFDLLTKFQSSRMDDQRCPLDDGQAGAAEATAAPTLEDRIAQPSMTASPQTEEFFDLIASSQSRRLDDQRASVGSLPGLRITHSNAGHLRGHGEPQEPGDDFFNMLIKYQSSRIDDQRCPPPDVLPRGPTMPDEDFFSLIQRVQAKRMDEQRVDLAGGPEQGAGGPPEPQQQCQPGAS
UniProt Q8IZ69: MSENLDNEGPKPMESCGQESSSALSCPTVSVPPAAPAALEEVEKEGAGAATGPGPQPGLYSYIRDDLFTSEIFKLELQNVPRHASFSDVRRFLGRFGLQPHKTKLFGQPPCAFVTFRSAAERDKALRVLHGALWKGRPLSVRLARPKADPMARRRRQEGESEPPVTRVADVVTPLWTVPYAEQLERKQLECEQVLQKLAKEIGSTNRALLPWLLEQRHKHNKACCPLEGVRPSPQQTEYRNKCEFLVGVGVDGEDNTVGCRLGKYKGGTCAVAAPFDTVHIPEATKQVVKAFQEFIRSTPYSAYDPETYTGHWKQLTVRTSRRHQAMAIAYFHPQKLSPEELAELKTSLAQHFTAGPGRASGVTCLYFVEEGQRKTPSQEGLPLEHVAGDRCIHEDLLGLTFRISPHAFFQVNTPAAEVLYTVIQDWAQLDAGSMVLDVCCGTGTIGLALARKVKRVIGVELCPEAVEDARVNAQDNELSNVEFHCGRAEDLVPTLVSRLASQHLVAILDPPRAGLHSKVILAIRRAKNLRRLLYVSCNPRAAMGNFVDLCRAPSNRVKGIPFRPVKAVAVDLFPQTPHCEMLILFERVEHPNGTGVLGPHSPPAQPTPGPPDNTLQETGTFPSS
UniProt Q86VW0: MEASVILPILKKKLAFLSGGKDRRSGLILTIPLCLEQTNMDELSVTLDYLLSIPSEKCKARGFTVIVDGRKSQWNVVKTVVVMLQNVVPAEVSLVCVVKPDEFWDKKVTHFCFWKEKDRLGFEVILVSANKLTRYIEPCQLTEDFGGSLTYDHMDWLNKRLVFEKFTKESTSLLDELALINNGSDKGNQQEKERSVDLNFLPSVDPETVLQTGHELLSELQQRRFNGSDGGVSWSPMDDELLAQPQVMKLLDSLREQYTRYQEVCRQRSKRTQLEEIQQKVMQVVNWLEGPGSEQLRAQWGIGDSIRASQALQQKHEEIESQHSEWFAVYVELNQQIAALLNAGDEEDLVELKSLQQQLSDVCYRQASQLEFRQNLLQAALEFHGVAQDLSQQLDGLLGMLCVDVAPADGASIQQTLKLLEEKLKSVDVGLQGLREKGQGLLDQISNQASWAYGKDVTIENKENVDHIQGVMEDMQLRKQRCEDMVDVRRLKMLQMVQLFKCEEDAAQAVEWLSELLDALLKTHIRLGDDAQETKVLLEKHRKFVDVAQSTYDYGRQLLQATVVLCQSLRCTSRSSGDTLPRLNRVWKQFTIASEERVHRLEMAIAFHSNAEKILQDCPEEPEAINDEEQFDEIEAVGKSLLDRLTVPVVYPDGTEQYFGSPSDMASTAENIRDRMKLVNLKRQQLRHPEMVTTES
UniProt Q7Z7L1: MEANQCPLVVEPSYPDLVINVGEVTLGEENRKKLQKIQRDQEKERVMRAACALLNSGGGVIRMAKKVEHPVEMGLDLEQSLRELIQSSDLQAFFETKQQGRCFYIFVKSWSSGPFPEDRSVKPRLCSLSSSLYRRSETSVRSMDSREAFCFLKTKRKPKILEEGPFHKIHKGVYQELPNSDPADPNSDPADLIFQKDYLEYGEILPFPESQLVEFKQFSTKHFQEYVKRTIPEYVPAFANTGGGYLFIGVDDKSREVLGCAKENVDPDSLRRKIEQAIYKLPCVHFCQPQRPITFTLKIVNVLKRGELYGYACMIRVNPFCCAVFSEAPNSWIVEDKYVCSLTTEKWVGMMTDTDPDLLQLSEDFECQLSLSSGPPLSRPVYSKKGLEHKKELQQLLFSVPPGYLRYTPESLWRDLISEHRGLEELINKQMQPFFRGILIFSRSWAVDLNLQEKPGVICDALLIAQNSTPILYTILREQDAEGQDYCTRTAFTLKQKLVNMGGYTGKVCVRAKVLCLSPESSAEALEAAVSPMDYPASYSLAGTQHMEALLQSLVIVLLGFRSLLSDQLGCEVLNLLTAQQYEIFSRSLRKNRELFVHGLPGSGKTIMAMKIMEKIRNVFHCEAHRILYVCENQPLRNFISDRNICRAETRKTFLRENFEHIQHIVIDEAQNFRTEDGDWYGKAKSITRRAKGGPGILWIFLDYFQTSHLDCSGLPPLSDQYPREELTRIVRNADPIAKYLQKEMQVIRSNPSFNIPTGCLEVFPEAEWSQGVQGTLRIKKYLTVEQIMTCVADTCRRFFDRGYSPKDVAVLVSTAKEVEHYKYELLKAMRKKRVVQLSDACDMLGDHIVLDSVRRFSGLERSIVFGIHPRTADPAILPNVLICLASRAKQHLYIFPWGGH
UniProt Q8IXM2, whole entry, looked up: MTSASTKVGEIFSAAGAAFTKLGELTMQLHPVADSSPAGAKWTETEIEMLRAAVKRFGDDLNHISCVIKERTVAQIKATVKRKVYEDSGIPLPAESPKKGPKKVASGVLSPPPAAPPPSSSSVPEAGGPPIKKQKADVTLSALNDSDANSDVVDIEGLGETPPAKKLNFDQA

This is a selection; strong and weak results do not stand in their true shares.

Compound in the experiment: COC(=O)C#Cc1ccccc1 [methyl 3-phenylpropiolate]
The experiment can be described thus: log2 ratio of iodoacetamide-alkyne labeling of the cysteine site, DMSO over compound (competition); higher = stronger covalent engagement of the cysteine by the compound, active = 1 or more. To be noted: 500 µM; treatment time 1 h; system: HEK293T cell lysate. Summed up: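 HEK293T lysate (2 mg/mL) was treated with DMSO or electrophile (500 µM, 1 h, ambient temperature), then iodoacetamide alkyne (1 h), clicked to sCIP-TMT reagents, pooled, trypsin-digested overnight at 37 °C, streptavidin-enriched and acid-eluted. Peptides were run on Orbitrap Eclipse LC-MS/MS with FAIMS and quantified in FragPipe. The log2 competition ratio per cysteine is mean control-channel over mean compound-channel reporter intensity. Duplicate channels and three replicates were used, and cysteines quantified in only one replicate were excluded.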
As for CAND1 C131 (UniProt Q86VP6), the “log2 ratio of iodoacetamide-alkyne labeling” value (“log2 ratio” for short) was inactive: 0.338.

As for IRF2BP1 C239 (UniProt Q8IU81), the “log2 ratio” value is inactive: 0.125.

In the case of IRF2BP2 C37 (UniProt Q7Z5L9), the “log2 ratio” value is inactive: -0.0083.

On to PHF6 C128 (UniProt Q8IWS0), for which the “log2 ratio” value was inactive: -0.0348.

With DHX40 C42 (UniProt Q8IX18), the “log2 ratio” value was inactive: 0.355.

On to UniProt Q8IX01_C447, for which the “log2 ratio” value is inactive: 0.259.

Take UniProt Q8IY26_C55: the “log2 ratio” value is inactive: 0.993.

On to UniProt Q7L2H7_C134, for which the “log2 ratio” value was inactive: -0.134.

For MAEA C61 (UniProt Q7L5Y9), the “log2 ratio” value is inactive: 0.354.

As for UniProt Q7Z2T5_C656, the “log2 ratio” value is inactive: 0.305.

On to ANKLE2 C844 (UniProt Q86XL3), for which the “log2 ratio” value is inactive: 0.0364.

SETX C997 (UniProt Q7Z333): the “log2 ratio” value is inactive: 0.498.

Take UniProt Q7Z2Z2_C670: the “log2 ratio” value is inactive: 0.0864.

With UniProt Q7RTV0_C40, the “log2 ratio” value is inactive: 0.0358.

In the case of APTX C161 (UniProt Q7Z2E3), the “log2 ratio” value is inactive: 0.422.

SND1 C152 (UniProt Q7KZF4): the “log2 ratio” value was inactive: 0.4.

On to KANSL1 C1020 (UniProt Q7Z3B3), for which the “log2 ratio” value was inactive: 0.445.

On to ALDH16A1 C28 (UniProt Q8IZ83), for which the “log2 ratio” value was inactive: 0.336.

Take UniProt Q7Z5K2_C293: the “log2 ratio” value is inactive: 0.472.

As to FAM122B C155 (UniProt Q7Z309), the “log2 ratio” value was active: 1.05.

On to IRF2BP2 C19 (UniProt Q7Z5L9), for which the “log2 ratio” value is inactive: 0.113.

Consider DDX42 C281 (UniProt Q86XP3), for which the “log2 ratio” value was inactive: 0.45.

Take ZC3HAV1 C162 (UniProt Q7Z2W4): the “log2 ratio” value was inactive: 0.082.

Regarding UniProt Q7Z5K2_C344, the “log2 ratio” value was inactive: 0.847.

Regarding UniProt Q86YR5_C616, the “log2 ratio” value was inactive: -0.225.

MRPL10 C180 (UniProt Q7Z7H8): the “log2 ratio” value was inactive: 0.204.

Turning to TRMT2A C191 (UniProt Q8IZ69), the “log2 ratio” value is inactive: 0.327.

SESTD1 C618 (UniProt Q86VW0): the “log2 ratio” value was inactive: 0.161.

Turning to UniProt Q86Y56_C349, the “log2 ratio” value is inactive: 0.458.

On to SLFN11 C884 (UniProt Q7Z7L1), for which the “log2 ratio” value was inactive: 0.199.

Take TBC1D1 C1160 (UniProt Q86TI0): the “log2 ratio” value was inactive: 0.493.

As to USP48 C658 (UniProt Q86UV5), the “log2 ratio” value was inactive: 0.11.

In the case of NR2C2AP C7 (UniProt Q86WQ0), the “log2 ratio” value was inactive: 0.0291.

In the case of UniProt Q8IXM2_C66, the “log2 ratio” value is inactive: 0.167.

As for UniProt Q7Z695_C54, the “log2 ratio” value is inactive: 0.541.

On to CYFIP1 C1241 (UniProt Q7L576), for which the “log2 ratio” value was inactive: 0.137.

Take UniProt Q8IX01_C656: the “log2 ratio” value was active: 2.27.
